# Screen size: about 200,000 compounds; about 25 (0.01%) were called active. The inconclusive results got no clear call from the source; some entries with a clear call stand among them for comparison. Calls follow the shape of the dose curve; as a rule, active = well fitted inhibition curve with a large enough effect in the signal ratio, with a control signal flat (not every such curve was filed as active); inconclusive = small, poorly fitted or top-dose-only effect, or effect the other way, or a change in a side signal; inactive = flat fitted curve, though single readings scatter; the % refers to the signal ratio. A potency beside an inconclusive call is a rough fit, not a confirmed value.
# Experiment: qHTS Assay for Modulators of Lamin A Splicing
# Conditions: HeLa LMNA splicing GFP/RFP minigene ratio, 48 h; ratio change, negative = inhibition: at 46.1 µM (top of the series) unless noted
# Procedure, shortened: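 S3 HeLa cells stably expressing lamin A-EGFP splicing minigene plus DsRed2, 600 cells/well, 48 h compound exposure at 37C. Laser-scanning cytometry; analysed as GFP (500-530 nm)/RFP (575-640 nm) total intensity ratio; 0.5% DMSO vehicle.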
# % is scaled to controls: 0 for no effect and ±100 for the full control effect; potency is read from the fitted curve at half-maximal effect.
Compound,"ratio change, negative = inhibition",Potency
CCOc1ccccc1C(=O)N/N=C/c1cccc2cccnc12,inactive: 6.44% [at 0.0737 µM],
O=C(CC(c1ccc(F)cc1)c1ccco1)Nc1nccs1 (centres undefined),inconclusive: -23.1% [at 46 µM],
OC1(c2cccnc2)CCN(Cc2nnnn2C2CCCCC2)CC1,inconclusive: 11.2%,
COCCNC(=S)N/N=C(\C)c1ccc(Cl)c(Cl)c1,inconclusive: 150% [at 46 µM],
Cc1cccc(-c2nc(Cn3c(=O)cc(-c4ccccc4)c4c(C)nn(C)c43)c(C)o2)c1,inactive: -22.9% [at 46 µM],
Cc1ccc2nc(-c3ccc(NS(=O)(=O)c4ccc(F)cc4)cc3)sc2c1,inconclusive: -39.2%,
CCCc1n(CC(O)COCc2ccccc2)c2ccccc2[n+]1C (centres undefined),inconclusive: 26.6% [at 46 µM],
O=C(NCc1ccc(Cl)cc1)C1CCCN(c2nc3ccccc3n3cccc23)C1 (centres undefined),inconclusive: 16.1% [at 46 µM],
O=[N+]([O-])c1ccc(N2CCOCC2)cc1SCc1ccco1,inconclusive: -8.74%,
Nc1c(-c2nc(-c3cccs3)no2)nnn1-c1cccc(Cl)c1,inconclusive: 20.9% [at 46 µM],
Cc1cc(C2=NNC(=NC3CC3)SC2)c(C)n1-c1ccccc1F,,"inconclusive: 35.5 µM [falling, single point]"
CCCCCCCCCS(=O)(=O)N/N=C/c1cccc([N+](=O)[O-])c1,inconclusive: -30.2%,
CCOC(=O)/C(=N/Nc1ccc(OC)cc1)Sc1nnc(CCc2ccccc2)n1-c1ccccc1,inconclusive: -42.8%,
CCc1ccc(Nc2ncnc3c2cnn3-c2cc(Cl)ccc2C)cc1,,"inconclusive: 15.8 µM [inhibitor, single point]"
CCOc1ccccc1CC1C(=O)Nc2ccc(Br)cc21 (centres undefined),,"inconclusive: 35.5 µM [cytotoxic, single point]"
COc1cc(/C=C(/C#N)c2ccc(F)cc2)ccc1Oc1ccc([N+](=O)[O-])cn1,,"inconclusive: 7.94 µM [fluorescent, partial curve]"
COc1ccc(NC(=S)c2ccncc2)cc1,,"inconclusive: 12.6 µM [fluorescent, single point]"
N#Cc1nc(Cc2cccc3ccccc23)oc1N1CCCCC1,inconclusive: -32.6%,
O=[N+]([O-])c1cc(C(F)(F)F)ccc1NCCCCNS(=O)(=O)c1ccc2ccccc2c1,inconclusive: 9.76%,
CC1Cc2ccccc2N1C(=O)CSc1ccccc1 (centres undefined),inconclusive: 13.4%,

# 2 entries from above in another layout:
Compound	ratio change, negative = inhibition	Potency
CCCc1n(CC(O)COCc2ccccc2)c2ccccc2[n+]1C (centres undefined)	inconclusive: 26.6% [at 46 µM]	
O=C(NCc1ccc(Cl)cc1)C1CCCN(c2nc3ccccc3n3cccc23)C1 (centres undefined)	inconclusive: 16.1% [at 46 µM]	

# (cont.)

Compound,"ratio change, negative = inhibition",Potency
O=C(NC(NC(=S)Nc1c(Cl)cccc1Cl)C(Cl)(Cl)Cl)OCc1ccccc1 (centres undefined),,"inconclusive: 12.6 µM [inhibitor, partial curve]"
CCOc1ccccc1NC(=O)c1nnn(CC(=O)Nc2ccc(OC)c(OC)c2)c1N,inactive: 6.35% [at 46 µM],
O=C(Nc1cccc(Cl)c1)OCCN1CCN(Cc2ccccc2)CCC1=O,,"inconclusive: 17.8 µM [falling, single point]"
O=C(Nc1nccs1)c1ccc(-c2cccc([N+](=O)[O-])c2)o1,inconclusive: 42.3% [at 46 µM],
Cc1c(C)c2c(c(C)c1O)CCC(C)(COc1ccc(CC3SC(=O)NC3=O)cc1)O2 (centres undefined),inactive: 1.45%,
O=C(COc1ccc(S(=O)(=O)N2CCCCC2)cc1)NCc1ccncc1,inactive: -6.5%,
CC1(C)CC(=O)C=C(Nc2ccccc2F)C1,inactive: -5.37%,
CCC(C)Sc1nc2c(c(=O)[nH]c(=O)n2C)n1CCc1ccccc1 (centres undefined),,"inconclusive: 35.5 µM [falling, single point]"
CCOc1ccc(CNC(=O)c2ccc(Sc3ccc(Cl)cc3)c(NC(C)=O)c2)cc1OC,,"inconclusive: 14.1 µM [falling, single point]"
C/C=C/C(=O)OCC(=O)Nc1cccc(F)c1,inconclusive: -17.4% [at 46 µM],
CC(=O)N1CC[n+]2c(-c3ccc(Cl)cc3Cl)csc21,inconclusive: 7.33%,
CC(=O)c1ccc(N2CCN(S(=O)(=O)c3ccc4[nH]c5c(c4c3)CCCC5)CC2)cc1,inconclusive: -7.03% [at 46 µM],
C=Cc1c(C)c2cc3[nH]c(cc4nc(cc5nc(cc1[nH]2)C(C)=C5CCC(=O)O)C(CCC(=O)O)=C4C)c(C)c3C=C,inconclusive: -7.83%,
N#CC1=C(N)N(c2ccccc2)C(c2cccc([N+](=O)[O-])c2)C1(C#N)C#N (centres undefined),inconclusive: 14.3%,
Cc1cccc(-n2ncc3c(NC4CCCC4)ncnc32)c1,,"inconclusive: 8.91 µM [inhibitor, partial curve, poor fit]"
COc1ccc(/C=N/Nc2cc(C)nc(NS(=O)(=O)c3ccc(C)cc3)n2)cc1,inconclusive: -40.5%,
O=C(OCn1nnc2ccccc2c1=O)c1cn(-c2ccccc2)nc1-c1cccnc1,inconclusive: 4.28%,
COc1ccc(/C=N/OCC(=O)Nc2nc3ccccc3s2)cc1,inconclusive: 11.8%,
S=C(NCc1ccccc1Cl)NC1CCCC1,inconclusive: -41.3%,

# — PubChem BioAssay AID1487 (National Center for Advancing Translational Sciences (NCATS), 2009)
